Assay results published in PubChem BioAssay (NCATS).
This list was built around the results that the source calls inconclusive (neither active nor inactive); the mix of calls is not that of the screen. For some of these results: A potency beside an inconclusive call is a rough fit, not a confirmed value. Active and inactive are the calls of the source. Unless noted, calls follow the shape of the dose curve; as a rule, active = well fitted curve in the direction sought with a large enough effect; inconclusive = small, poorly fitted or top-dose-only effect, or another doubt; inactive = no such curve, though single readings can be large; an effect the other way counts as inactive or inconclusive.

Legend:
[1] = Quantitative High-Throughput drug screen in 47 multiple myeloma cell lines against the NCATS MIPE library collection: VP6_DJ cell viability assay (AID 1919867); also: nearly all actives have a fitted effect of over 40% in size
Outline: (§1)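 Myeloma cells (500/well) treated with MIPE 4.0 compounds for 48 h at 37 °C, 5% CO2. Viability read as ATP via CellTiter-Glo luminescence after 5 min at RT; DMSO-only wells = 100%, media-only = 0% viability.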

[2] = Quantitative High-Throughput drug screen in 47 multiple myeloma cell lines against the NCATS MIPE library collection: UTMC2_PLB cell viability assay (AID 1919868); conditions: CellTiter-Glo ATP luminescence, 48 h; series mostly up to 45.8 µM; also: nearly all actives have a fitted effect of over 55% in size
Outline: as §1

[3] = Quantitative High-Throughput drug screen in 47 multiple myeloma cell lines against the NCATS MIPE library collection: KMS28BM_JCRB cell viability assay (AID 1919874); conditions: CellTiter-Glo ATP, 48 h; series mostly up to 45.8 µM; also: nearly all actives have a fitted effect of over 35% in size
Outline: as §1

7G8 = assay: qHTS profiling for inhibitors of Plasmodium falciparum proliferation (AID 504749); also: nearly all actives have a fitted effect of over 60% in size; conditions: P. falciparum in erythrocytes, SYBR Green DNA, 72 h; series mostly up to 28.7 µM
Outline: (§2)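 P. falciparum-infected erythrocytes (0.3% parasitemia, 2.5% hematocrit final) were exposed to compounds for 72 h at 37 C in 5% CO2, then lysed with SYBR Green buffer overnight at room temperature; parasite DNA fluorescence was normalized to artemisinin and DMSO controls.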

[4] = Quantitative High-Throughput drug screen in 47 multiple myeloma cell lines against the NCATS MIPE library collection: PE2_PLB cell viability assay (AID 1919869); conditions: PE2_PLB myeloma cells viability, ATP luminescence, 48 h; viability (% of control): at 45.8 µM (top of the series); also: nearly all actives have a fitted effect of over 35% in size
Outline: as §1

[5] = Quantitative High-Throughput drug screen in 47 multiple myeloma cell lines against the NCATS MIPE library collection: PCM6_Riken cell viability assay (AID 1919870); also: nearly all actives have a fitted effect of over 30% in size
Outline: as §1

[6] = Quantitative High-Throughput drug screen in 47 multiple myeloma cell lines against the NCATS MIPE library collection: RPMI8226_ATCC cell viability assay (AID 1919871); conditions: RPMI8226 myeloma viability, CellTiter-Glo ATP luminescence, 48 h; viability (% of control): at 45.8 µM (top of the series); also: nearly all actives have a fitted effect of over 30% in size
Outline: as §1

[7] = qHTS for identification of novel therapeutic agents for treatment of microphthalmiaassociated transcription factor (MiT) renal cell carcinoma (RCC) (AID 1963991; calls by dose curve); conditions: TFE3-RCC UOK109 viability, CellTiter-Glo, 48 h; active = Z-AUC below -0.8 in all three lines
Outline: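 Three TFE3-fusion RCC lines (UOK109, UOK124, UOK145), 500 cells/well in complete medium, were treated with MIPE 4.0 compounds for 48 hours at 37 C. Viability was by CellTiter-Glo luminescence, normalized to DMSO (100%) and empty wells (0%); curves fitted over 11 concentrations.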

[8] = Quantitative High-Throughput drug screen in 47 multiple myeloma cell lines against the NCATS MIPE library collection: OPM2_DSMZ cell viability assay (AID 1919872); also: nearly all actives have a fitted effect of over 30% in size
Outline: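 Luminescent ATP measurement with CellTiter-Glo gives viability, scaled between DMSO-only wells (100%) and media-only wells (0%). Cells, 500 per well, faced library compounds for 48 hours at 37C.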

[9] = Quantitative High-Throughput drug screen in 47 multiple myeloma cell lines against the NCATS MIPE library collection: KMS11_JCRBsus cell viability assay (AID 1919873); also: nearly all actives have a fitted effect of over 50% in size
Outline: as §1

3D7 = assay: qHTS profiling for inhibitors of Plasmodium falciparum proliferation (AID 504749); also: nearly all actives have a fitted effect of over 60% in size; conditions: P. falciparum in erythrocytes, SYBR Green DNA, 72 h; series mostly up to 28.7 µM
Outline: as §2

[10] = as above; conditions: P. falciparum in erythrocytes, SYBR Green DNA, 72 h; Potency: parasite line B unless noted; series mostly up to 28.7 µM
Outline: as §2
Potency is read from the fitted curve at half-maximal effect.

NS(=O)(=O)c1cc(Cl)c(Cl)c(S(N)(=O)=O)c1
Potency [1]: inactive
Potency [2]: inconclusive: 0.0132 µM [rising, full curve, poor fit]
Potency [3]: inactive
Potency (7G8): inconclusive: 10 µM [inhibitor, single point]

O=C(C=Cc1c(C(=O)O)[nH]c2cc(Cl)cc(Cl)c12)Nc1ccccc1
Potency [1]: inactive
Potency [4]: inconclusive: 3.7 nM [rising, full curve, poor fit]
Potency [5]: inactive
Potency [6]: inactive

CC[C@]1(O)C[C@H]2CN(CCC3=c4ccccc4=N[C]3[C@@](C(=O)OC)(c3cc4c(cc3OC)N(C)[C@H]3[C@@](O)(C(N)=O)[C@H](O)[C@]5(CC)C=CCN6CC[C@]43[C@@H]65)C2)C1
Potency [1]: inconclusive: 0.0935 µM [cytotoxic, full curve]
Potency [4]: inconclusive: 52.6 nM [cytotoxic, full curve]
Potency [5]: inconclusive: 0.0469 µM [cytotoxic, full curve]
Potency [3]: inconclusive: 118 nM [cytotoxic, partial curve, poor fit]
Potency [7]: active: 0.332 µM

CN1CCCN(C(=O)c2cccc(-c3ccc(C=C4C(=O)Nc5ccc(Cl)cc54)o3)c2)CC1
Potency [1]: active: 18.7 µM
Potency [2]: active: 0.935 µM
Potency [8]: active: 23.5 µM
Potency [7]: inconclusive: 4.18 µM [falling, full curve]

CCCCOc1c(C(=O)c2c(F)cc(C)cc2F)cnc2n[nH]cc12
Potency [1]: active: 3.32 µM
Potency [2]: active: 3.32 µM
Potency [9]: active: 2.64 µM
Potency [7]: inconclusive: 7.43 µM [falling, full curve]

COc1ccc2c(OCc3nnc4ccc(-c5ccccc5)nn34)ccnc2c1
Potency [1]: inconclusive: 0.332 µM [cytotoxic, full curve, poor fit]
Potency [2]: inconclusive: 0.0469 µM [rising, full curve, poor fit]
Potency [8]: inactive
Potency [7]: inconclusive: 0.372 µM

O=C(NC1CCNCC1)c1[nH]ncc1NC(=O)c1c(Cl)cccc1Cl
Potency [1]: active: 0.59 µM
Potency [2]: active: 0.662 µM
Potency [7]: inconclusive: 2.35 µM [falling, full curve]

COc1ccc(-c2cc(=O)c3c(O)cc(O[C@@H]4O[C@H](CO[C@@H]5O[C@@H](C)[C@H](O)[C@@H](O)[C@@H]5O)[C@@H](O)[C@H](O)[C@@H]4O)cc3o2)cc1O
Potency [1]: active: 14.8 µM
Potency [2]: inconclusive: 16.6 µM [cytotoxic, partial curve, poor fit]
Potency [3]: inactive
Potency [7]: inconclusive: 33.2 µM [falling, partial curve, poor fit]

CN(C)CCCC1(c2ccc(F)cc2)OCc2cc(C#N)ccc21 (stereo not drawn)
Potency [1]: inactive
Potency [2]: inactive
Potency [9]: inconclusive: 23.5 µM [cytotoxic, single point]
Potency [7]: inconclusive: 18.7 µM [falling, partial curve]

CNC(=O)[C@H](CC1=CN=C2C=CCC=C12)NC(=O)[C@@H](CC(=O)NO)CC(C)C
Potency [1]: inconclusive: 1.32 µM [cytotoxic, full curve, poor fit]
Potency [4]: inconclusive: 29600 nM [cytotoxic, single point]
Potency [5]: inconclusive: 1.18 µM [cytotoxic, full curve, poor fit]
Potency [6]: inactive
Potency [8]: inactive
Potency [9]: inconclusive: 1.05 µM [cytotoxic, full curve]
Potency [3]: active: 5900 nM
Potency [7]: inconclusive: 1.05 µM [falling, full curve]

O=S(=O)(O)CCS
Potency [1]: inconclusive: 11.8 µM [cytotoxic, single point]
Potency [4]: inconclusive: 29.6 nM [rising, full curve]
Potency [5]: inconclusive: 0.187 µM [rising, full curve, poor fit]

C=CC(=O)Nc1cc2c(Nc3ccc(F)c(Cl)c3)ncnc2cc1OCCCN1CCOCC1
Potency [1]: active: 1.18 µM
Potency [2]: active: 4.69 µM
Potency [8]: active: 20.9 µM
Potency [3]: active: 5260 nM
Potency [7]: inconclusive: 23.5 µM [falling, partial curve]

N#CC(=C(N)Sc1ccc(N)cc1)c1ccccc1C(F)(F)F
Potency [1]: inconclusive: 6.62 µM [cytotoxic, full curve, poor fit]
Potency [2]: inconclusive: 0.833 µM [cytotoxic, full curve, poor fit]
Potency [8]: inactive
Potency [9]: inconclusive: 16.6 µM [cytotoxic, partial curve]
Potency [7]: inconclusive: 1.18 µM [falling, full curve]

CN1CC(=O)NC1=NC(=O)Nc1cccc(Cl)c1
Potency [1]: inactive
Potency [2]: inconclusive: 5.9 µM [rising, partial curve, poor fit]
Potency [3]: inactive
Potency [7]: inconclusive: 16.6 µM [falling, partial curve]

CCCCCN(C)CCC(O)(P(=O)(O)O)P(=O)(O)O
Potency [1]: inconclusive: 0.833 µM [cytotoxic, full curve, poor fit]
Potency [2]: inconclusive: 2.96 µM [cytotoxic, full curve, poor fit]
Potency [9]: inactive

N#CC[C@H](C1CCCC1)n1cc(-c2ncnc3[nH]ccc23)cn1
Potency [1]: inconclusive: 23.5 µM [cytotoxic, partial curve, poor fit]
Potency [4]: inconclusive: 743 nM [cytotoxic, full curve]
Potency [5]: inconclusive: 23.5 µM [cytotoxic, single point]
Potency [6]: inactive
Potency [7]: inconclusive: 7.43 µM

COc1ccc2c(c1)c(CC(=O)OCC(=O)O)c(C)n2C(=O)c1ccc(Cl)cc1
Potency [1]: inconclusive: 0.001 µM
Potency [4]: inconclusive: 2.1 nM [cytotoxic, full curve, poor fit]
Potency [5]: inactive
Potency [3]: inactive

Nc1c2c(nc3ccccc13)CCCC2
Potency [1]: inconclusive: 0.0132 µM [rising, full curve, poor fit]
Potency [2]: inconclusive: 0.001 µM [cytotoxic]
Potency [8]: inconclusive: 7.43 µM [cytotoxic, partial curve, poor fit]
Potency [9]: inactive
Potency (3D7): inconclusive: 17.8 µM [inhibitor, single point]
Potency (7G8): inconclusive: 17.8 µM [inhibitor, single point]

COc1cc2c(cc1-c1c(C)noc1C)ncc1[nH]c(=O)n([C@H](C)c3ccccn3)c12
Potency [1]: active: 0.833 µM
Potency [2]: inconclusive: 23.5 µM [cytotoxic, partial curve, poor fit]
Potency [8]: inconclusive: 0.935 µM [cytotoxic, full curve]
Potency [7]: inconclusive: 0.833 µM [falling, full curve]

CN(C)CCN1C(=O)c2cccc3cc(N)cc(c23)C1=O
Potency [1]: active: 14.8 µM
Potency [4]: active: 20900 nM
Potency [6]: active: 16.6 µM
Potency [8]: inconclusive: 26.4 µM [cytotoxic, single point]
Potency [7]: inconclusive: 2.96 µM [falling, full curve]

Cn1cc(-c2ccc3nnc(Sc4ccc5ncccc5c4)n3n2)cn1
Potency [1]: active: 18.7 µM
Potency [4]: inconclusive: 18700 nM [cytotoxic, partial curve, poor fit]
Potency [5]: inconclusive: 37.2 µM [cytotoxic, single point]
Potency [6]: inconclusive: 29.6 µM [cytotoxic, partial curve, poor fit]
Potency [9]: inactive
Potency [3]: inactive
Potency [7]: inconclusive: 18.7 µM

CCOc1cc(N)c(Cl)cc1C(=O)NCC1CN(Cc2ccc(F)cc2)CCO1 (stereo not drawn)
Potency [1]: inconclusive: 0.0132 µM [rising, full curve, poor fit]
Potency [2]: inactive
Potency [9]: inactive
Potency [3]: inconclusive: 5.3 nM [rising, full curve, poor fit]
Potency [10]: active: 2.51 µM [parasite line A]
Potency (3D7): inconclusive: 10 µM [inhibitor, single point]

CCOC(=O)c1ncn2c1CN(C)C(=O)c1cc(F)ccc1-2
Potency [1]: inconclusive: 0.0332 µM [rising, full curve, poor fit]
Potency [2]: inconclusive: 11.8 µM [rising, partial curve, poor fit]
Potency [8]: inactive
Potency [9]: inconclusive: 0.0021 µM [rising, full curve, poor fit]
Potency [7]: inconclusive: 4.18 µM
Potency (7G8): inconclusive: 17.8 µM [inhibitor, single point]

CCc1cncnc1N1CCN(Cc2nc3ccc(C(F)(F)F)cc3[nH]2)CC1
Potency [1]: inconclusive: 16.6 µM [cytotoxic, partial curve, poor fit]
Potency [4]: inconclusive: 14800 nM [cytotoxic, partial curve]
Potency [5]: inconclusive: 16.6 µM [cytotoxic, partial curve]
Potency [6]: inconclusive: 26.4 µM [cytotoxic, partial curve, poor fit]
Potency [8]: active: 9.35 µM
Potency [7]: inconclusive: 2.64 µM

Fc1ccc(Cl)cc1-c1nc(Nc2ccncc2)c2nccnc2n1
Potency [1]: inconclusive: 2.09 µM [cytotoxic, full curve, poor fit]
Potency [2]: inconclusive: 3.32 µM [cytotoxic, full curve, poor fit]
Potency [9]: inconclusive: 2.64 µM [cytotoxic, full curve, poor fit]
Potency [3]: inactive
Potency [7]: inconclusive: 10.5 µM [falling, partial curve, poor fit]
